Test results reported in publication PMC6280245.

Chains of the proteins cited; added tags and fusions are not shown.
UniProt P63104: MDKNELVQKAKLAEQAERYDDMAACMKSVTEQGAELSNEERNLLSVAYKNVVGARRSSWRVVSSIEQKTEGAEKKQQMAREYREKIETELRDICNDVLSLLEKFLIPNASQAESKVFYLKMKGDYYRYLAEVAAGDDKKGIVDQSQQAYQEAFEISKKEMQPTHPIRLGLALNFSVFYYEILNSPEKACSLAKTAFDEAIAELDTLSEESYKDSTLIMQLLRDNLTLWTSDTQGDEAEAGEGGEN
UniProt P23526: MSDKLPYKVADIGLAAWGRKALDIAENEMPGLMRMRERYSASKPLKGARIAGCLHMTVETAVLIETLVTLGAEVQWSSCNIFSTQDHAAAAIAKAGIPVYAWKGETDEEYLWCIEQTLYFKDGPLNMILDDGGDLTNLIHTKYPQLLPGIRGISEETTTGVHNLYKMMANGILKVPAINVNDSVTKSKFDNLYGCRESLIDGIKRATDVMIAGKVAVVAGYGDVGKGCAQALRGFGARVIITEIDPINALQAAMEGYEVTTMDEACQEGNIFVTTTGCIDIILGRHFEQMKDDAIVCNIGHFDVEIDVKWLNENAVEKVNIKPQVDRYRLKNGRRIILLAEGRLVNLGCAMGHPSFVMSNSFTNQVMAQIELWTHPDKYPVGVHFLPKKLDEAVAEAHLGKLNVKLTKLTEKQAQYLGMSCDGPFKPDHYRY
UniProt P17174: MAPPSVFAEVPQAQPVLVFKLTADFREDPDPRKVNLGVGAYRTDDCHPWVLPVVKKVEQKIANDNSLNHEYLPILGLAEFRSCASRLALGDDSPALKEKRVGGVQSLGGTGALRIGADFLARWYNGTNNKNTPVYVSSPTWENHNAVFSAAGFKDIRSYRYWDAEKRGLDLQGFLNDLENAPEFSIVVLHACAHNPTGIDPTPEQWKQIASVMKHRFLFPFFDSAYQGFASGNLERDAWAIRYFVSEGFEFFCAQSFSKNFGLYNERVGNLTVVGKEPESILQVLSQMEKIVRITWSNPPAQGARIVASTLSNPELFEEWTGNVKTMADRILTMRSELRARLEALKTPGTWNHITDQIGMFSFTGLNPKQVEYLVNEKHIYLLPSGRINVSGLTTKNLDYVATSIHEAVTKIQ
UniProt Q00610: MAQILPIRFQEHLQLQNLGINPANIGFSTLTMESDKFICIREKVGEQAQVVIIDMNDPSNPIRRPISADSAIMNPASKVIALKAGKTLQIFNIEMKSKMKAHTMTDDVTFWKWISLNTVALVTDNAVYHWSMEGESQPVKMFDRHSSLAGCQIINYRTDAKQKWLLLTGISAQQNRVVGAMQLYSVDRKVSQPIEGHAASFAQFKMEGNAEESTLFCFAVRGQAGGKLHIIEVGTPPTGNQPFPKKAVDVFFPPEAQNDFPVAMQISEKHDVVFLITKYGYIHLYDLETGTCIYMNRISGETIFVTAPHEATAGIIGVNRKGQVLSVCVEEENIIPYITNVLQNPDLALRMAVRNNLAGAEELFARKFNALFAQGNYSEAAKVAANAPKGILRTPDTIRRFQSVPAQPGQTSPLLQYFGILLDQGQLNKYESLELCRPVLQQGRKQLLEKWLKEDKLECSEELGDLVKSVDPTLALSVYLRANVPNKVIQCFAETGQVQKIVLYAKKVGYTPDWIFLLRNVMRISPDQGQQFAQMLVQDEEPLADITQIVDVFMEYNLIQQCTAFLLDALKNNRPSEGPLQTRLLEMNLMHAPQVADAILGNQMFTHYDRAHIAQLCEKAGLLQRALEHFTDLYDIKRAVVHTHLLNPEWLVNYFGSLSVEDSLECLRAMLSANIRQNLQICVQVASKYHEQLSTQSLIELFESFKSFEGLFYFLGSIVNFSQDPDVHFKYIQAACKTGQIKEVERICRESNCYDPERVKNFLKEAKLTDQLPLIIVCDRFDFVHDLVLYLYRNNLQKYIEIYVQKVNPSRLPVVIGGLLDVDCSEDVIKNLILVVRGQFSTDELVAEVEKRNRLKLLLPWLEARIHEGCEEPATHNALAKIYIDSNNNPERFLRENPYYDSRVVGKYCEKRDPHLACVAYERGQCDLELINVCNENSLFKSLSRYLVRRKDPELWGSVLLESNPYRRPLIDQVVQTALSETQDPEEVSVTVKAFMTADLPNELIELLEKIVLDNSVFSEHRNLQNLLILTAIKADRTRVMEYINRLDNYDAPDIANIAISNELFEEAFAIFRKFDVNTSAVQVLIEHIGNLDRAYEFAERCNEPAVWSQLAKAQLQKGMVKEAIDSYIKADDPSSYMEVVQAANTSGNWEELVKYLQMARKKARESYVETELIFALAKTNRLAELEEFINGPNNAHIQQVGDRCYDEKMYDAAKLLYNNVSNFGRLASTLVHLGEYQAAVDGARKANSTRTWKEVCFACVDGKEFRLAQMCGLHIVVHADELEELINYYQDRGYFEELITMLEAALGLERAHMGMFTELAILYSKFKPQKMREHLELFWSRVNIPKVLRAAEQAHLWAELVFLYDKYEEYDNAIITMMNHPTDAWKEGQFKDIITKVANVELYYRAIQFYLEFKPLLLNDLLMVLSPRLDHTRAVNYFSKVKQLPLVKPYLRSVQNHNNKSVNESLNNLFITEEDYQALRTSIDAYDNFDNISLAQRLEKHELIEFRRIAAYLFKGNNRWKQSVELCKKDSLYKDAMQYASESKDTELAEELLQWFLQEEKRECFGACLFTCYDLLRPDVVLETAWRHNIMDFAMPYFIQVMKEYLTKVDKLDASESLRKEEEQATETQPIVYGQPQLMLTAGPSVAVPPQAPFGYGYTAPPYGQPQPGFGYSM
UniProt P28838: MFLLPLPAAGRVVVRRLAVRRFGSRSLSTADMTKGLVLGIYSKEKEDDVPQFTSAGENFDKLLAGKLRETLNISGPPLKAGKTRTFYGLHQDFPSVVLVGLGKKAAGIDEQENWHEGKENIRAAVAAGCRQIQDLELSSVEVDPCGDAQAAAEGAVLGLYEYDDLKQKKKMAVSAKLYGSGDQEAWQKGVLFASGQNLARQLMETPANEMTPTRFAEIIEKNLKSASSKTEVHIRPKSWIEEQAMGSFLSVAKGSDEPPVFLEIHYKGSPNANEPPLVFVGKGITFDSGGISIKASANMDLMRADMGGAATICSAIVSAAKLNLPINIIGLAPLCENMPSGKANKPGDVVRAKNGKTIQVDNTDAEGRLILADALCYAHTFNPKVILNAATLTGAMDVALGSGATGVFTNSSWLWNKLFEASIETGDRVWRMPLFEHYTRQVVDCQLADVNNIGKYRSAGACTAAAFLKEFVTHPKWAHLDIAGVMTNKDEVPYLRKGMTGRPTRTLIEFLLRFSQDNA
UniProt P26641: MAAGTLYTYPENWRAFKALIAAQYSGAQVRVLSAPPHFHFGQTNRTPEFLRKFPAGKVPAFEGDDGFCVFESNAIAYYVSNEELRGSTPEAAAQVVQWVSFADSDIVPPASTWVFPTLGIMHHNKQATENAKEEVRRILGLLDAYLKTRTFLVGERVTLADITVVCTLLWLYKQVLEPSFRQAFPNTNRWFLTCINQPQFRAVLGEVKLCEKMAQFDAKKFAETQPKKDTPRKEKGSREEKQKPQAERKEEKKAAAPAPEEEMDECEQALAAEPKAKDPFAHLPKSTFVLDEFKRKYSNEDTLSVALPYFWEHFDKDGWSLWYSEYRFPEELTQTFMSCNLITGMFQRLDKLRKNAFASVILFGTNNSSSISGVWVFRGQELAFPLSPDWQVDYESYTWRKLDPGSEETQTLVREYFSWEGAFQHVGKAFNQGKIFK
UniProt P09104: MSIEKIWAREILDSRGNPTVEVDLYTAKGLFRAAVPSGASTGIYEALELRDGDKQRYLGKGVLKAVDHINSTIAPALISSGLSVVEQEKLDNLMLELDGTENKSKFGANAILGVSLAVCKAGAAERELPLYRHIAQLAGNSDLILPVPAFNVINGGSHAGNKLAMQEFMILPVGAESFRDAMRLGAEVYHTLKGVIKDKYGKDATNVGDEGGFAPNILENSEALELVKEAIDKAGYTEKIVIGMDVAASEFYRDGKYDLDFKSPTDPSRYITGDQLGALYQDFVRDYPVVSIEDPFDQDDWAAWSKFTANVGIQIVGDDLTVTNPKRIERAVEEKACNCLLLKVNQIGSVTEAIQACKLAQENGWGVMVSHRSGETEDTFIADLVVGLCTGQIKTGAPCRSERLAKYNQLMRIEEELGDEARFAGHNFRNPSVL
UniProt P62873: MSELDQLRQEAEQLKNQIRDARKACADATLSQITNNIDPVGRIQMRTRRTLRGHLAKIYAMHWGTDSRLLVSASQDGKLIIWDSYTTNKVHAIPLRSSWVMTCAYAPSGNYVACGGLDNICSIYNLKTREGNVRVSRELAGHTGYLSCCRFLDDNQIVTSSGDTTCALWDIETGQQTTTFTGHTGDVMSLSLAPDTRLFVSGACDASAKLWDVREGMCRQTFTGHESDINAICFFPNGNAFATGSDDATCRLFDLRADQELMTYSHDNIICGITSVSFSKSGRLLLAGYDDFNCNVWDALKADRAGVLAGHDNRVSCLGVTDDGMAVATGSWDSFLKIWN
UniProt Q92769: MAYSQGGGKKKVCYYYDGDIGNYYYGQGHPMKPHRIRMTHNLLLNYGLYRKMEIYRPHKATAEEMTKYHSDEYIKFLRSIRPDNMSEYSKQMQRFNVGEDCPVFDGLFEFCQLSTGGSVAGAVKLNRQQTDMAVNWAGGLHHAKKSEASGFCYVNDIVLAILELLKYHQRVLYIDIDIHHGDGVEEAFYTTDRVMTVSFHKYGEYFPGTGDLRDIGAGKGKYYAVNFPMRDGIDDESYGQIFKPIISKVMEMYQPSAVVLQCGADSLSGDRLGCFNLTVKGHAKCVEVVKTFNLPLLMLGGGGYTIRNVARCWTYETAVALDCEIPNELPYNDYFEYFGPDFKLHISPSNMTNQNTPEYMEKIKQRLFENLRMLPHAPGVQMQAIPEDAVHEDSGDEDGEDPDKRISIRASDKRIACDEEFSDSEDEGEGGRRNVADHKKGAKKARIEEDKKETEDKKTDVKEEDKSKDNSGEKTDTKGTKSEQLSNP
UniProt Q07866: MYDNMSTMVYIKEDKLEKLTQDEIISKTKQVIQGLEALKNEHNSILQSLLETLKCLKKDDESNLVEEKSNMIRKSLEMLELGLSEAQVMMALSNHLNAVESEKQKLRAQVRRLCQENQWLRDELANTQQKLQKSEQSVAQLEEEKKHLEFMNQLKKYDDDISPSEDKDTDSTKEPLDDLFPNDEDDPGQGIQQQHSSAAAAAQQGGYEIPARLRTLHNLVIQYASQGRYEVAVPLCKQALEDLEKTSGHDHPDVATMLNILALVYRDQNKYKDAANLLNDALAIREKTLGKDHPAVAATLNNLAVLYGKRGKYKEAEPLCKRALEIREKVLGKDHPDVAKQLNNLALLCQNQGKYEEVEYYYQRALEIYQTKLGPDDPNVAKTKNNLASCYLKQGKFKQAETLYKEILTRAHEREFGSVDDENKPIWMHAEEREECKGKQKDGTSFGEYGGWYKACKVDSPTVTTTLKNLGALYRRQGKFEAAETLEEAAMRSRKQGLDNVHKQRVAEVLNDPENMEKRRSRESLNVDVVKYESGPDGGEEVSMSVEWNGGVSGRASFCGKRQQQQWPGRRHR
UniProt O94760: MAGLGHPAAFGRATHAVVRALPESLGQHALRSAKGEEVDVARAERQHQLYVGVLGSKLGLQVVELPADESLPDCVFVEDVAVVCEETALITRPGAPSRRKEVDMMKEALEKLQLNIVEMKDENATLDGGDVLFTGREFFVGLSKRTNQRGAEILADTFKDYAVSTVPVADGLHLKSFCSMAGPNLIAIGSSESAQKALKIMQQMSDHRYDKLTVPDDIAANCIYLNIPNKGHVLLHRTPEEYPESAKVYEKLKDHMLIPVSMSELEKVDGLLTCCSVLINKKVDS
UniProt Q9BVA1: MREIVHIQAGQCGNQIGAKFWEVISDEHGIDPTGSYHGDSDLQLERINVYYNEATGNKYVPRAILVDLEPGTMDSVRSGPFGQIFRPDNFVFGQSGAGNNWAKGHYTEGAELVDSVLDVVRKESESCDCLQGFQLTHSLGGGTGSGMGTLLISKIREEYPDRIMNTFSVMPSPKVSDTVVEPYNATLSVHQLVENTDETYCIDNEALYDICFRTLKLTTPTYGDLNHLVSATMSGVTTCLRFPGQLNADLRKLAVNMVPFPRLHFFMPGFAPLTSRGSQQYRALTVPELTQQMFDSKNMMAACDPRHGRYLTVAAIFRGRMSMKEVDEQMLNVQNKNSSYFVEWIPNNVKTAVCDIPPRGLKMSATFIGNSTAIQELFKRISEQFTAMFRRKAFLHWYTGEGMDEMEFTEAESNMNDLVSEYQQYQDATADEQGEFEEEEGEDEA
UniProt P61088: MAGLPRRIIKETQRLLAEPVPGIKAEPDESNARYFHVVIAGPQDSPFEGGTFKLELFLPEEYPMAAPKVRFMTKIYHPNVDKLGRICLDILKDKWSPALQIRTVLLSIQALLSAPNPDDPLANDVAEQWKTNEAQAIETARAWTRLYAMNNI

T1: mouse Nucleoredoxin Cys208Ser (mouse) (UniProt P97346)
T1 sequence: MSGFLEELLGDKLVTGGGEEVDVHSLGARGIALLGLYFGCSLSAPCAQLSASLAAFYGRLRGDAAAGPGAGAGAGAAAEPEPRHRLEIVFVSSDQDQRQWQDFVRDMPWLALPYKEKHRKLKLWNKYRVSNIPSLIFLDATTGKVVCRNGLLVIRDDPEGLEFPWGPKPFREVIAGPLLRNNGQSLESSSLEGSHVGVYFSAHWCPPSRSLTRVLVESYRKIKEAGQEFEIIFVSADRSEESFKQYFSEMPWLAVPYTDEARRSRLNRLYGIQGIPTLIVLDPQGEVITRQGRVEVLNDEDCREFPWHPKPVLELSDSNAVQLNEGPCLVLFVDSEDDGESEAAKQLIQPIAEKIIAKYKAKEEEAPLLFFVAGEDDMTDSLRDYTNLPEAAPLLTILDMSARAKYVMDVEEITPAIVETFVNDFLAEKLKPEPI

B1: Aspartate aminotransferase, mitochondrial (protein, UniProt P00505 30-430)
chain: SSWWTHVEMGPPDPILGVTEAFKRDTNSKKMNLGVGAYRDDNGKPYVLPSVRKAEAQIAAKNLDKEYLPIGGLAEFCKASAELALGENSEVLKSGRFVTVQTISGTGALRIGASFLQRFFKFSRDVFLPKPTWGNHTPIFRDAGMQLQGYRYYDPKTCGFDFTGAVEDISKIPEQSVLLLHACAHNPTGVDPRPEQWKEIATVVKKRNLFAFFDMAYQGFASGDGDKDAWAVRHFIEQGINVCLCQSYAKNMGLYGERVGAFTMVCKDADEAKRVESQLKILIRPMYSNPPLNGARIAAAILNTPDLRKQWLQEVKVMADRIIGMRTQLVSNLKKEGSTHNWQHITDQIGMFCFTGLKPEQVERLIKEFSIYMTKDGRISVAGVTSSNVGYLAHAIHQVTK
B2: 3-Hydroxyacyl-CoA dehydrogenase type-2 (protein, UniProt Q99714 1-261)
chain: MAAACRSVKGLVAVITGGASGLGLATAERLVGQGASAVLLDLPNSGGEAQAKKLGNNCVFAPADVTSEKDVQTALALAKGKFGRVDVAVNCAGIAVASKTYNLKKGQTHTLEDFQRVLDVNLMGTFNVIRLVAGEMGQNEPDQGGQRGVIINTASVAAFEGQVGQAAYSASKGGIVGMTLPIARDLAPIGIRVMTIAPGLFGTPLLTSLPEKVCNFLASQVPFPSRLGDPAEYAHLVQAIIENPFLNGEVIRLDGAIRMQP
B3: Isoleucine-tRNA ligase, mitochondrial (protein, UniProt Q9NSE4 49-1012)
chain: SNHQPNSNSGRYRDTVLLPQTSFPMKLLGRQQPDTELEIQQKCGFSELYSWQRERKVKTEFCLHDGPPYANGDPHVGHALNKILKDIANRFHMMNGSKIHFVPGWDCHGLPIEIKVLSELGREAQNLSAMEIRKKARSFAKAAIEKQKSAFIRWGIMADWNNCYYTFDGKYEAKQLRTFYQMYDKGLVYRSYKPVFWSPSSRTALAEAELEYNPEHVSRSIYVKFPLLKPSPKLASLIDGSSPVSILVWTTQPWTIPANEAVCYMPESKYAVVKCSKSGDLYVLAADKVASVASTLETTFETISTLSGVDLENGTCSHPLIPDKASPLLPANHVTMAKGTGLVHTAPAHGMEDYGVASQHNLPMDCLVDEDGVFTDVAGPELQNKAVLEEGTDVVIKMLQTAKNLLKEEKLVHSYPYDWRTKKPVVIRASKQWFINITDIKTAAKELLKKVKFIPGSALNGMVEMMDRRPYWCISRQRVWGVPIPVFHHKTKDEYLINSQTTEHIVKLVEQHGSDIWWTLPPEQLLPKEVLSEVGGPDALEYVPGQDILDIWFDSGTSWSYVLPGPDQRADLYLEGKDQLGGWFQSSLLTSVAARKRAPYKTVIVHGFTLGEKGEKMSKSLGNVIHPDVVVNGGQDQSKEPPYGADVLRWWVADSNVFTEVAIGPSVLNAARDDISKLRNTLRFLLGNVADFNPETDSIPVNDMYVIDQYMLHLLQDLANKITELYKQYDFGKVVRLLRTFYTRELSNFYFSIIKDRLYCEKENDPKRRSCQTALVEILDVIVRSFAPILPHLAEEVFQHIPYIKEPKSVFRTGWISTSSIWKKPGLEEAVESACAMRDSFLGSIPGKNAAEYKVITVIEPGLLFEIIEMLQSEETSSTSQLNELMMASESTLLAQEPREMTADVIELKGKFLINLEGGDIREESSYKVIVMPTTKEKCPRCWKYTAESSDTLCPRCAEVVSGK
B4: Xaa-Pro dipeptidase (protein, UniProt P12955 1-493)
chain: MAAATGPSFWLGNETLKVPLALFALNRQRLCERLRKNPAVQAGSIVVLQGGEETQRYCTDTGVLFRQESFFHWAFGVTEPGCYGVIDVDTGKSTLFVPRLPASHATWMGKIHSKEHFKEKYAVDDVQYVDEIASVLTSQKPSVLLTLRGVNTDSGSVCREASFDGISKFEVNNTILHPEIVECRVFKTDMELEVLRYTNKISSEAHREVMKAVKVGMKEYELESLFEHYCYSRGGMRHSSYTCICGSGENSAVLHYGHAGAPNDRTIQNGDMCLFDMGGEYYCFASDITCSFPANGKFTADQKAVYEAVLRSSRAVMGAMKPGVWWPDMHRLADRIHLEELAHMGILSGSVDAMVQAHLGAVFMPHGLGHFLGIDVHDVGGYPEGVERIDEPGLRSLRTARHLQPGMVLTVEPGIYFIDHLLDEALADPARASFLNREVLQRFRGFGGVRIEEDVVVTDSGIELLTCVPRTVEEIEACMAGCDKAFTPFSGPK
B5: Alpha-aminoadipic semialdehyde dehydrogenase (protein, UniProt P49419 27-539)
chain: AFMSTLLINQPQYAWLKELGLREENEGVYNGSWGGRGEVITTYCPANNEPIARVRQASVADYEETVKKAREAWKIWADIPAPKRGEIVRQIGDALREKIQVLGSLVSLEMGKILVEGVGEVQEYVDICDYAVGLSRMIGGPILPSERSGHALIEQWNPVGLVGIITAFNFPVAVYGWNNAIAMICGNVCLWKGAPTTSLISVAVTKIIAKVLEDNKLPGAICSLTCGGADIGTAMAKDERVNLLSFTGSTQVGKQVGLMVQERFGRSLLELGGNNAIIAFEDADLSLVVPSALFAAVGTAGQRCTTARRLFIHESIHDEVVNRLKKAYAQIRVGNPWDPNVLYGPLHTKQAVSMFLGAVEEAKKEGGTVVYGGKVMDRPGNYVEPTIVTGLGHDASIAHTETFAPILYVFKFKNEEEVFAWNNEVKQGLSSSIFTKDLGRIFRWLGPKGSDCGIVNVNIPTSGAEIGGAFGGEKHTGGGRESGSDAWKQYMRRSTCTINYSKDLPLAQGIKFQ
B6: Serine/threonine-protein phosphatase 5 (protein, UniProt P53041 1-499)
chain: MAMAEGERTECAEPPRDEPPADGALKRAEELKTQANDYFKAKDYENAIKFYSQAIELNPSNAIYYGNRSLAYLRTECYGYALGDATRAIELDKKYIKGYYRRAASNMALGKFRAALRDYETVVKVKPHDKDAKMKYQECNKIVKQKAFERAIAGDEHKRSVVDSLDIESMTIEDEYSGPKLEDGKVTISFMKELMQWYKDQKKLHRKCAYQILVQVKEVLSKLSTLVETTLKETEKITVCGDTHGQFYDLLNIFELNGLPSETNPYIFNGDFVDRGSFSVEVILTLFGFKLLYPDHFHLLRGNHETDNMNQIYGFEGEVKAKYTAQMYELFSEVFEWLPLAQCINGKVLIMHGGLFSEDGVTLDDIRKIERNRQPPDSGPMCDLLWSDPQPQNGRSISKRGVSCQFGPDVTKAFLEENNLDYIIRSHEVKAEGYEVAHGGRCVTVFSAPNYCDQMGNKASYIHLQGSDLRPQFHQFTAVPHPNVKPMAYANTLLQLGMM
B7: Peroxiredoxin-1 (protein, UniProt Q06830 1-199)
chain: MSSGNAKIGHPAPNFKATAVMPDGQFKDISLSDYKGKYVVFFFYPLDFTFVCPTEIIAFSDRAEEFKKLNCQVIGASVDSHFCHLAWVNTPKKQGGLGPMNIPLVSDPKRTIAQDYGVLKADEGISFRGLFIIDDKGILRQITVNDLPVGRSVDETLRLVQAFQFTDKHGEVCPAGWKPGSDTIKPDVQKSKEYFSKQK
B8: Ran-binding protein 3 (protein, UniProt Q9H6Z4 1-567)
chain: MADLANEEKPAIAPPVFVFQKDKGQKSPAEQKNLSDSGEEPRGEAEAPHHGTGHPESAGEHALEPPAPAGASASTPPPPAPEAQLPPFPRELAGRSAGGSSPEGGEDSDREDGNYCPPVKRERTSSLTQFPPSQSEERSSGFRLKPPTLIHGQAPSAGLPSQKPKEQQRSVLRPAVLQAPQPKALSQTVPSSGTNGVSLPADCTGAVPAASPDTAAWRSPSEAADEVCALEEKEPQKNESSNASEEEACEKKDPATQQAFVFGQNLRDRVKLINESVDEADMENAGHPSADTPTATNYFLQYISSSLENSTNSADASSNKFVFGQNMSERVLSPPKLNEVSSDANRENAAAESGSESSSQEATPEKESLAESAAAYTKATARKCLLEKVEVITGEEAESNVLQMQCKLFVFDKTSQSWVERGRGLLRLNDMASTDDGTLQSRLVMRTQGSLRLILNTKLWAQMQIDKASEKSIRITAMDTEDQGVKVFLISASSKDTGQLYAALHHRILALRSRVEQEQEAKMPAPEPGAAPSNEEDDSDDDDVLAPSGATAAGAGDEGDGQTTGST

biological target: T1, mouse Nucleoredoxin Cys208Ser (mouse); experiment: affinity purification with mass spectrometry; intermediate trapping: mNrx Cys208Ser coupled to CNBr-activated sepharose and reduced with 10 mM DTT; clarified SH-SY5Y lysate (NP40 lysis buffer) 2 h at 4°C; washed with 100 mM Tris, 300 mM NaCl, pH 8 and TE buffer; trapped proteins (mixed disulfide) eluted with 10 mM DTT and 10 mM TCEP; only the target purified

binding, binds:
14-3-3 protein zeta/delta (protein kinase C inhibitor protein 1) (from UniProt P63104 1-245)
Adenosylhomocysteinase (from UniProt P23526 1-432)
Aspartate aminotransferase, cytoplasmic (from UniProt P17174 1-413)
Clathrin heavy chain 1 (from UniProt Q00610 1-1675)
Cofilin-1 (from UniProt P23528 1-166)
Cytosol aminopeptidase (from UniProt P28838 1-519)
Elongation factor 1-gamma (from UniProt P26641 1-437)
Filamin-A (from UniProt P21333 1-2647)
Gamma-enolase (from UniProt P09104 1-434)
Glyceraldehyde-3-phosphate dehydrogenase (from UniProt P04406 1-335)
Guanine nucleotide-binding protein (from UniProt P62873 1-340)
Heat shock protein HSP 90-alpha (from UniProt P07900 1-732)
Histone deacetylase 2 (from UniProt Q92769 1-488)
Inosine-5′-monophosphate dehydrogenase 2 (from UniProt P12268 1-514)
Kinesin light chain 1 (from UniProt Q07866 1-573)
N(G),N(G)-Dimethylarginine dimethylaminohydrolase 1 (from UniProt O94760 1-285)
Pyruvate kinase (from UniProt P14618 1-531)
T-Complex protein 1 subunit theta (from UniProt P50990 1-548)
Tubulin beta-2B chain (from UniProt Q9BVA1 1-445)
Ubiquitin carboxyl-terminal hydrolase 5 (from UniProt P45974 1-858)
Ubiquitin-conjugating enzyme E2 N (from UniProt P61088 1-152)
B1
B2
B3
B4
B5
B6
B7
B8

Results are given in words; binding and its absence hold for the method and conditions named. Binding seen in cells or lysates may run through a third protein. These calls come from enrichment with a bait or labelling near it, and not all partners need be listed.
